Results deposited as PubChem BioAssay AID1224830 (NIAID, 2016)
In all, the deposit lists about 18,000 reagents; shown is a part drawn at random. Of all reagents, about 2,900 (16%) got an active call. 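Calls are made per well; low scores hint the gene aids the LPS response, high scores that it dampens it.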 Entries without a mark were called inactive. Repeated entries: four replicate wells of each siRNA pool.

Aim: 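Regulators of TLR4 signalling towards TNF-alpha in macrophage-like cells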 (primary screen)
System: human THP-1 monocytic leukaemia cells, TNF dual-luciferase reporter clone, PMA-differentiated to macrophage-like cells
Reagent: siRNA pool against human genes, 50 nM
Duration: LPS for 4 h, given about 3 days after siRNA transfection
Treatment: bacterial LPS (TLR4 ligand), 10 ng/ml
Read-out: 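TNF firefly reporter luminescence divided by renilla, normalised to the plate median, then turned into a robust z-score for each replicate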
Scale: TNF reporter robust z-score: higher = stronger TNF reporter response to LPS
Call rule: 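a well is active when its z-score exceeds 2.8 or falls below -1.5; control wells carry no call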

target	TNF reporter robust z-score
KLF16 (KLF transcription factor 16)	-0.54
KLF16 (KLF transcription factor 16)	-0.31
KLF16 (KLF transcription factor 16)	-0.22
KLF16 (KLF transcription factor 16)	-0.68
ZNF366 (zinc finger protein 366)	1.06
ZNF366 (zinc finger protein 366)	2.47
ZNF366 (zinc finger protein 366)	0.94
ZNF366 (zinc finger protein 366)	1.23
PHF8 (PHD finger protein 8)	0.22
PHF8 (PHD finger protein 8)	-0.99
PHF8 (PHD finger protein 8)	3.65 (active)
PHF8 (PHD finger protein 8)	-0.33
CRIPAK (retired record)	1.1
CRIPAK (retired record)	1.96
CRIPAK (retired record)	0.89
CRIPAK (retired record)	1.3
ZIM2 (zinc finger imprinted 2)	-0.45
ZIM2 (zinc finger imprinted 2)	0.02
ZIM2 (zinc finger imprinted 2)	-0.36
ZIM2 (zinc finger imprinted 2)	-0.71
ZNF616 (zinc finger protein 616)	0.81
ZNF616 (zinc finger protein 616)	0.66
ZNF616 (zinc finger protein 616)	-0.14
ZNF616 (zinc finger protein 616)	1.13
DDX12P (DEAD/H-box helicase 12, pseudogene)	2.61
DDX12P (DEAD/H-box helicase 12, pseudogene)	-0.44
DDX12P (DEAD/H-box helicase 12, pseudogene)	-0.89
DDX12P (DEAD/H-box helicase 12, pseudogene)	-0.23
CFAP53 (cilia and flagella associated protein 53)	1.67
CFAP53 (cilia and flagella associated protein 53)	-0.16
CFAP53 (cilia and flagella associated protein 53)	-0.55
CFAP53 (cilia and flagella associated protein 53)	-0.13
DHX33 (DEAH-box helicase 33)	0.02
DHX33 (DEAH-box helicase 33)	-0.85
DHX33 (DEAH-box helicase 33)	-0.37
DHX33 (DEAH-box helicase 33)	-0.68
AHSA1 (activator of HSP90 ATPase activity 1)	-1.33
AHSA1 (activator of HSP90 ATPase activity 1)	-0.84
AHSA1 (activator of HSP90 ATPase activity 1)	-0.83
AHSA1 (activator of HSP90 ATPase activity 1)	-0.73
ANKRD29 (ankyrin repeat domain 29)	0.31
ANKRD29 (ankyrin repeat domain 29)	1.9
ANKRD29 (ankyrin repeat domain 29)	1.11
ANKRD29 (ankyrin repeat domain 29)	3.42 (active)
HIGD1A (HIG1 hypoxia inducible domain family member 1A)	0.49
HIGD1A (HIG1 hypoxia inducible domain family member 1A)	1.39
HIGD1A (HIG1 hypoxia inducible domain family member 1A)	2.33
HIGD1A (HIG1 hypoxia inducible domain family member 1A)	1.24
PARM1 (prostate androgen-regulated mucin-like protein 1)	0.67
PARM1 (prostate androgen-regulated mucin-like protein 1)	0.78
PARM1 (prostate androgen-regulated mucin-like protein 1)	0.48
PARM1 (prostate androgen-regulated mucin-like protein 1)	2.35
OR4K15 (olfactory receptor family 4 subfamily K member 15)	2.74
OR4K15 (olfactory receptor family 4 subfamily K member 15)	0.81
OR4K15 (olfactory receptor family 4 subfamily K member 15)	0.46
OR4K15 (olfactory receptor family 4 subfamily K member 15)	0.57
MIXL1 (Mix paired-like homeobox)	0.11
MIXL1 (Mix paired-like homeobox)	2.4
MIXL1 (Mix paired-like homeobox)	1.44
MIXL1 (Mix paired-like homeobox)	1.29
LINC00518 (long independently transcribed non-coding RNA 518)	-1.29
LINC00518 (long independently transcribed non-coding RNA 518)	-0.92
LINC00518 (long independently transcribed non-coding RNA 518)	-1.62 (active)
LINC00518 (long independently transcribed non-coding RNA 518)	-0.83
F11 (coagulation factor XI)	0.93
F11 (coagulation factor XI)	1.66
F11 (coagulation factor XI)	1.51
F11 (coagulation factor XI)	1.65
ASRGL1 (asparaginase and isoaspartyl peptidase 1)	0.49
ASRGL1 (asparaginase and isoaspartyl peptidase 1)	-0.43
ASRGL1 (asparaginase and isoaspartyl peptidase 1)	-0.96
ASRGL1 (asparaginase and isoaspartyl peptidase 1)	0.62
EGFL8 (EGF like domain multiple 8)	-1.7 (active)
EGFL8 (EGF like domain multiple 8)	-1.31
EGFL8 (EGF like domain multiple 8)	-0.81
EGFL8 (EGF like domain multiple 8)	-0.77
